{"source": "paper PMC7170509", "about": "“Substrate recognition and ATPase activity of the E. coli cysteine/cystine ABC transporter YecSC-FliY” (The Journal of Biological Chemistry, 2020)", "binders": {"B1": {"name": "YecS (transmembrane domain of YecSC), tag-free (protein, UniProt P0AFT2 1-222)", "chain": "MQESIQLVIDSLPFLLKGAGYTLQLSIGGMFFGLLLGFILALMRLSPIWPVRWLARFYISIFRGTPLIAQLFMIYYGLPQFGIELDPIPSAMIGLSLNTAAYAAETLRAAISSIDKGQWEAAASIGMTPWQTMRRAILPQAARVALPPLSNSFISLVKDTSLAATIQVPELFRQAQLITSRTLEVFTMYLAASLIYWIMATVLSTLQNHFENQLNRQEREPK"}, "B2": {"name": "FliY, the substrate-binding protein (SBP) of the E. coli YecSC-FliY cysteine/cystine ABC import system (natural protein, UniProt P0AEM9 30-266, looked up)", "chain": "DEGLLNKVKERGTLLVGLEGTYPPFSFQGDDGKLTGFEVEFAQQLAKHLGVEASLKPTKWDGMLASLDSKRIDVVINQVTISDERKKKYDFSTPYTISGIQALVKKGNEGTIKTADDLKGKKVGVGLGTNYEEWLRQNVQGVDVRTYDDDPTKYQDLRVGRIDAILVDRLAALDLVKKTNDTLAVTGEAFSRQESGVALRKGNEDLLKAVNDAIAEMQKDGTLQALSEKWFGADVTK"}}, "key": {"[1]": {"target": "T1, YecC (nucleotide-binding domain of YecSC), N-terminally His10-tagged (E. coli) (UniProt P37774)", "T1 sequence": "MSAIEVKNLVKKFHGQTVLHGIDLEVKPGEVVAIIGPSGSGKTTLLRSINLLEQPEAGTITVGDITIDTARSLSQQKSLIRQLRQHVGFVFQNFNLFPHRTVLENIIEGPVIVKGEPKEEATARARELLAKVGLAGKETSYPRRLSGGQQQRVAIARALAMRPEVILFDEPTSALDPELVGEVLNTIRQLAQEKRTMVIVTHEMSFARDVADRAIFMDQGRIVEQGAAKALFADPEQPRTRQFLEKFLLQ", "test": "co-purification (Ni-NTA affinity chromatography); His10-YecC and tag-free YecS co-expressed in E. coli; membranes extracted with 7-cyclohexyl-1-heptyl-β-D-maltoside, or with 0.5% DM and DDM; Ni-NTA column, Tris-HCl pH 7.5, 0.5 M NaCl, elution with 60–250 mM imidazole"}, "[2]": {"target": "FliY, the substrate-binding protein (SBP) of the E. coli YecSC-FliY cysteine/cystine ABC import system (E. coli) (UniProt P0AEM9)", "test": "SEC; purified FliY on size exclusion chromatography; conditions not given; both purified"}}, "note": "These are yes or no findings as the source states them, for the method shown. Some entries that bind do so weakly or less than the wild type. For some assays here: Where a sequence is shown, tags or fusion partners need not be part of it."}
{"binder": "B1", "values": [{"measurement": "binding", "setting": "[1]", "value": "binds"}]}
{"binder": "B2", "values": [{"measurement": "binding", "setting": "[2]", "value": "no binding"}]}
